Results deposited as PubChem BioAssay AID1508597 (Cure First, 2020).

Aim: 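Survival screen with siRNA in ovarian cancer cells derived from patients, with or without rucaparib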 (primary screen)
Cells: human ovarian carcinoma lines grown from tumours: OCI-P5x (papillary serous) and OCI-C5x (clear cell)
Reagent: siRNA pool against human genes, 1.25 pmol siRNA per well
Time to read-out: 72 h or 96 h, depending on the cell culture
Challenge: rucaparib 20 µM (about IC30) or vehicle, present until read-out
Detection: 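ATP luminescence measured at 72 or 96 h according to the culture, then normalised and expressed as percent viability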
Scale: viability, normalised: higher = more viable cells remaining
Active means: 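Active when normalised viability falls below 80 percent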
Calls: active = viability under 80%; inactive = viability 80% or more
Here is a random part of about 2,100 reagents. 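Calls flag viability under 80% in either arm, not effects specific to rucaparib; the reference for percent is not stated.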 Unmarked entries are inactive. Not stated in the record: the 100% reference.

| Gene | rucaparib or vehicle | cell line | technical replicate | viability, normalised (%) |
| --- | --- | --- | --- | --- |
| CLDN6 (claudin 6) | Rucaparib | OCI-C5x (clear cell) | 1 | 80.7 |
| CLDN6 (claudin 6) | Rucaparib | OCI-C5x (clear cell) | 2 | 70.4 (active) |
| CLDN6 (claudin 6) | Rucaparib | OCI-C5x (clear cell) | 3 | 91.5 |
| CLDN6 (claudin 6) | Rucaparib | OCI-P5x (serous) | 1 | 86.2 |
| CLDN6 (claudin 6) | Rucaparib | OCI-P5x (serous) | 2 | 106 |
| CLDN6 (claudin 6) | Rucaparib | OCI-P5x (serous) | 3 | 90.5 |
| CLDN6 (claudin 6) | Vehicle | OCI-C5x (clear cell) | 1 | 55.7 (active) |
| CLDN6 (claudin 6) | Vehicle | OCI-C5x (clear cell) | 2 | 64.9 (active) |
| CLDN6 (claudin 6) | Vehicle | OCI-C5x (clear cell) | 3 | 54 (active) |
| CLDN6 (claudin 6) | Vehicle | OCI-P5x (serous) | 1 | 78.9 (active) |
| CLDN6 (claudin 6) | Vehicle | OCI-P5x (serous) | 2 | 89.9 |
| CLDN6 (claudin 6) | Vehicle | OCI-P5x (serous) | 3 | 76.9 (active) |
| MPLKIP (M-phase specific PLK1 interacting protein) | Rucaparib | OCI-C5x (clear cell) | 1 | 58.4 (active) |
| MPLKIP (M-phase specific PLK1 interacting protein) | Rucaparib | OCI-C5x (clear cell) | 2 | 43 (active) |
| MPLKIP (M-phase specific PLK1 interacting protein) | Rucaparib | OCI-C5x (clear cell) | 3 | 42.8 (active) |
| MPLKIP (M-phase specific PLK1 interacting protein) | Rucaparib | OCI-P5x (serous) | 1 | 71.3 (active) |
| MPLKIP (M-phase specific PLK1 interacting protein) | Rucaparib | OCI-P5x (serous) | 2 | 59.5 (active) |
| MPLKIP (M-phase specific PLK1 interacting protein) | Rucaparib | OCI-P5x (serous) | 3 | 60.8 (active) |
| MPLKIP (M-phase specific PLK1 interacting protein) | Vehicle | OCI-C5x (clear cell) | 1 | 59.8 (active) |
| MPLKIP (M-phase specific PLK1 interacting protein) | Vehicle | OCI-C5x (clear cell) | 2 | 63.7 (active) |
| MPLKIP (M-phase specific PLK1 interacting protein) | Vehicle | OCI-C5x (clear cell) | 3 | 55.2 (active) |
| MPLKIP (M-phase specific PLK1 interacting protein) | Vehicle | OCI-P5x (serous) | 1 | 72.9 (active) |
| MPLKIP (M-phase specific PLK1 interacting protein) | Vehicle | OCI-P5x (serous) | 2 | 61.3 (active) |
| MPLKIP (M-phase specific PLK1 interacting protein) | Vehicle | OCI-P5x (serous) | 3 | 61.5 (active) |

Continued; the last 3 above are carried over.
| Gene | rucaparib or vehicle | cell line | technical replicate | viability, normalised (%) |
| --- | --- | --- | --- | --- |
| MPLKIP (M-phase specific PLK1 interacting protein) | Vehicle | OCI-P5x (serous) | 1 | 72.9 (active) |
| MPLKIP (M-phase specific PLK1 interacting protein) | Vehicle | OCI-P5x (serous) | 2 | 61.3 (active) |
| MPLKIP (M-phase specific PLK1 interacting protein) | Vehicle | OCI-P5x (serous) | 3 | 61.5 (active) |
| PARP6 (poly(ADP-ribose) polymerase family member 6) | Rucaparib | OCI-C5x (clear cell) | 1 | 36.6 (active) |
| PARP6 (poly(ADP-ribose) polymerase family member 6) | Rucaparib | OCI-C5x (clear cell) | 2 | 34.7 (active) |
| PARP6 (poly(ADP-ribose) polymerase family member 6) | Rucaparib | OCI-C5x (clear cell) | 3 | 28.1 (active) |
| PARP6 (poly(ADP-ribose) polymerase family member 6) | Rucaparib | OCI-P5x (serous) | 1 | 29 (active) |
| PARP6 (poly(ADP-ribose) polymerase family member 6) | Rucaparib | OCI-P5x (serous) | 2 | 32.6 (active) |
| PARP6 (poly(ADP-ribose) polymerase family member 6) | Rucaparib | OCI-P5x (serous) | 3 | 34.2 (active) |
| PARP6 (poly(ADP-ribose) polymerase family member 6) | Vehicle | OCI-C5x (clear cell) | 1 | 28.8 (active) |
| PARP6 (poly(ADP-ribose) polymerase family member 6) | Vehicle | OCI-C5x (clear cell) | 2 | 20.4 (active) |
| PARP6 (poly(ADP-ribose) polymerase family member 6) | Vehicle | OCI-C5x (clear cell) | 3 | 27.4 (active) |
| PARP6 (poly(ADP-ribose) polymerase family member 6) | Vehicle | OCI-P5x (serous) | 1 | 41.2 (active) |
| PARP6 (poly(ADP-ribose) polymerase family member 6) | Vehicle | OCI-P5x (serous) | 2 | 49.1 (active) |
| PARP6 (poly(ADP-ribose) polymerase family member 6) | Vehicle | OCI-P5x (serous) | 3 | 54.5 (active) |
| MRI1 (methylthioribose-1-phosphate isomerase 1) | Rucaparib | OCI-C5x (clear cell) | 1 | 69 (active) |
| MRI1 (methylthioribose-1-phosphate isomerase 1) | Rucaparib | OCI-C5x (clear cell) | 2 | 62.8 (active) |
| MRI1 (methylthioribose-1-phosphate isomerase 1) | Rucaparib | OCI-C5x (clear cell) | 3 | 68.4 (active) |
| MRI1 (methylthioribose-1-phosphate isomerase 1) | Rucaparib | OCI-P5x (serous) | 1 | 102 |
| MRI1 (methylthioribose-1-phosphate isomerase 1) | Rucaparib | OCI-P5x (serous) | 2 | 93.7 |
| MRI1 (methylthioribose-1-phosphate isomerase 1) | Rucaparib | OCI-P5x (serous) | 3 | 92.3 |
| MRI1 (methylthioribose-1-phosphate isomerase 1) | Vehicle | OCI-C5x (clear cell) | 1 | 61.9 (active) |
| MRI1 (methylthioribose-1-phosphate isomerase 1) | Vehicle | OCI-C5x (clear cell) | 2 | 43.8 (active) |
| MRI1 (methylthioribose-1-phosphate isomerase 1) | Vehicle | OCI-C5x (clear cell) | 3 | 60.7 (active) |
| MRI1 (methylthioribose-1-phosphate isomerase 1) | Vehicle | OCI-P5x (serous) | 1 | 81.9 |
| MRI1 (methylthioribose-1-phosphate isomerase 1) | Vehicle | OCI-P5x (serous) | 2 | 93.5 |
| MRI1 (methylthioribose-1-phosphate isomerase 1) | Vehicle | OCI-P5x (serous) | 3 | 99.5 |
| SMYD3 (SET and MYND domain containing 3) | Rucaparib | OCI-C5x (clear cell) | 1 | 80.4 |
| SMYD3 (SET and MYND domain containing 3) | Rucaparib | OCI-C5x (clear cell) | 2 | 44.5 (active) |
| SMYD3 (SET and MYND domain containing 3) | Rucaparib | OCI-C5x (clear cell) | 3 | 42.8 (active) |
| SMYD3 (SET and MYND domain containing 3) | Rucaparib | OCI-P5x (serous) | 1 | 48 (active) |
| SMYD3 (SET and MYND domain containing 3) | Rucaparib | OCI-P5x (serous) | 2 | 54.5 (active) |
| SMYD3 (SET and MYND domain containing 3) | Rucaparib | OCI-P5x (serous) | 3 | 44.3 (active) |
| SMYD3 (SET and MYND domain containing 3) | Vehicle | OCI-C5x (clear cell) | 1 | 60.8 (active) |
| SMYD3 (SET and MYND domain containing 3) | Vehicle | OCI-C5x (clear cell) | 2 | 69.4 (active) |
| SMYD3 (SET and MYND domain containing 3) | Vehicle | OCI-C5x (clear cell) | 3 | 62.7 (active) |
| SMYD3 (SET and MYND domain containing 3) | Vehicle | OCI-P5x (serous) | 1 | 45 (active) |
| SMYD3 (SET and MYND domain containing 3) | Vehicle | OCI-P5x (serous) | 2 | 46 (active) |
| SMYD3 (SET and MYND domain containing 3) | Vehicle | OCI-P5x (serous) | 3 | 61.8 (active) |
